Results from PubChem BioAssay AID2685 (National Center for Advancing Translational Sciences (NCATS), 2010).
This is one part of the list. Further columns of the screen follow, without active or inactive calls. Compounds called inactive in the main read-out are mostly missing here. The note in brackets gives the kind of curve behind each potency; many fits are weak. Where a SMILES comes first, the peptide text is derived from it. The star is where a group is joined. Cbz = O=C(OCc1ccccc1)*; Boc = CC(C)(C)OC(=O)*

Test: qHTS Assay for Lipid Storage Modulators in Drosophila S3 Cells;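 for cell number change: cells counted by Cell Tracker Red CMTPX staining in the red channel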
Settings: BODIPY lipid droplet fluorescence, 18-24 h; for cell number change: measured here: cell count max response, cells fed with added oleic acid
Method in brief: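 Drosophila S3 cells loaded with oleic acid (400 uM, as added) and compounds at several concentrations; lipid droplets imaged by 488-nm laser-scanning cytometry, 500–530 nm intensity and object ratio to cell channel. Percent activity normalized to 20 uM Triacsin C.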

[1] = measured here: lipid fluorescence (Fed channel) AC50, cells fed with added oleic acid
[2] = measured here: cell number channel AC50, cells fed with added oleic acid

In the case of `O=C(c1cc(COc2ccc(F)cc2F)on1)N1CCSCC1`, the cell number change was -9.85% and the AC50 [1] was 0.0231 µM [falling, full curve, poor fit].

With `O=c1[nH]cc(COCc2ccccc2)c(=O)[nH]1` the cell number change was -10.9%.

`COc1cc(C2c3c(-c4ccccc4)n[nH]c3C(=O)N2c2ccccc2)ccc1O` (stereo not given) showed a cell number change of 0.453%.

In the case of `COc1cccc(N=Cc2ccc(O)cc2O)c1`, the cell number change was 46.6% and the AC50 [2] was 29.1 µM [rising, single point].

With `CC(C)(C)OC(=O)NCCCC[C@H](NC(=O)[C@H](Cc1c[nH]c2ccccc12)NC(=O)OCc1ccccc1)C(=O)O` (Cbz-Trp-Lys(Boc)-OH) the cell number change was 6.94% and the AC50 [1] was 6.51 µM [falling, single point].

For `CCNc1nc(NCc2ccccc2)nc(SCC(=O)Nc2ccccc2)n1`, the cell number change was -28.3% and the AC50 [1] was 20.6 µM [falling, single point].

With `N#Cc1c(N)c2ccccn2c1C(=O)c1ccc(Br)cc1` the cell number change was 31.9%, the AC50 [2] was 16.4 µM [rising, single point] and the AC50 [1] was 29.1 µM [rising, single point].

For `COc1ccc(C)cc1NS(=O)(=O)c1ccc2c(c1)n(C)c(=O)n2C`, the cell number change was 10.5%.

Compound `CCOC(=O)c1cc(CC)sc1NC(=O)COC(=O)c1ccccn1` has a cell number change of 38%.

In the case of `Cc1ccc(S(=O)(=O)NCC(=O)N(c2ccccc2)C(C(=O)NCc2ccccc2)c2ccco2)cc1` (stereo not given), the cell number change was 13.2% and the AC50 [1] was 16.4 µM [rising, single point].

With `CC1(C)CC(C)(c2ccc(O)cc2O)N(c2cccc(Cl)c2)C(=S)N1` (stereo not given) the cell number change was -26.5% and the AC50 [1] was 29.1 µM [falling, single point].

In the case of `S=c1[nH]c2cc(Cl)c3cccnc3c2o1`, the cell number change was 9.12%.

In the case of `CCCCOCC1CC(CC#CCN2CCCCC2)C(=O)O1` (stereo not given), the cell number change was -21.2% and the AC50 [1] was 20.6 µM [falling, single point].

In the case of `Cc1ccc(OCC(=O)N2N=C(C(F)(F)F)CC2(O)C(C)(C)C)cc1C` (stereo not given), the cell number change was -61.2% and the AC50 [1] was 0.259 µM [falling, full curve, poor fit].

For `CCOC(=O)C1(Cc2cccc(Cl)c2)CCCN(C(=O)c2cc(C)[nH]n2)C1` (stereo not given), the cell number change was 5.2% and the AC50 [1] was 0.00517 µM [falling, full curve, poor fit].

In the case of `COc1ccc(C(=O)COC(=O)c2c(-c3ccccc3)noc2C)c(OC)c1`, the AC50 [2] was 4.61 µM [rising, single point].

In the case of `COc1ccc(/C=N/Nc2ncnc3scc(-c4ccccc4)c23)cc1OC`, the cell number change was -5.13% and the AC50 [1] was 0.517 µM [rising, full curve].

With `O=C(NNc1ccc(Cl)cc1)c1sccc1Cl` the cell number change was 2.38% and the AC50 [2] was 0.146 µM [falling, full curve, poor fit].

In the case of `Cc1cccc(NC(=O)Nc2cccc(F)c2)n1`, the AC50 [1] was 0.058 µM [rising, full curve, poor fit].

In the case of `Cc1c(C(=O)OCC(=O)N2CCCCC2C)oc2ccccc12` (stereo not given), the cell number change was -31.2%, the AC50 [2] was 0.184 µM [falling, full curve, poor fit] and the AC50 [1] was 0.461 µM [falling, partial curve].

In the case of `CCc1ccc(N2C(=O)C3C4CCC(C4=C(C)C)C3C2=O)cc1` (stereo not given), the cell number change was -8.04% and the AC50 [1] was 0.00517 µM [rising, full curve, poor fit].

With `COc1ccc(NC(C)=O)cc1NC(=O)CSc1nnc(-c2ccccn2)n1C` the cell number change was 20.4% and the AC50 [1] was 13 µM [rising, partial curve].

With `Nc1nccnc1C(=O)OCC(=O)C12CC3CC(CC(C3)C1)C2` the cell number change was -29.7% and the AC50 [1] was 5.8 µM [falling, full curve].

With `COc1ccc(NC(=O)c2c(-c3c(Cl)cccc3Cl)noc2C)c(OC)c1` the cell number change was 14.3%.

In the case of `Cc1cc(=O)oc2cc(OCC(O)CN3CCN(c4ccc(F)cc4)CC3)ccc12` (stereo not given), the cell number change was -0.524%.

For `CC(C)C(NC(=O)c1ccc(F)cc1)C(=O)NCC1CCCO1` (stereo not given), the cell number change was -53.8% and the AC50 [2] was 29.1 µM [falling, single point].

With `CCCCOc1ccc2c(c1)C(=O)c1cc(O)ccc1-2` the cell number change was -23.7% and the AC50 [1] was 29.1 µM [falling, single point].

For `COC(=O)Nc1ccc(S(=O)(=O)N2CCC(C(=O)N3CCC(C)CC3)CC2)cc1`, the cell number change was 17.2%, the AC50 [2] was 0.651 µM [rising, single point] and the AC50 [1] was 0.366 µM [rising, single point].

With `O=C(NCCc1ccccc1)/C(=C\c1ccc([N+](=O)[O-])cc1)NC(=O)c1ccc(Br)cc1` the cell number change was -0.548% and the AC50 [1] was 0.291 µM [rising, single point].

For `CCOc1ccc(CCNC(=O)COC(=O)c2sccc2C)cc1OCC`, the cell number change was -65.9%, the AC50 [2] was 1.16 µM [falling, full curve] and the AC50 [1] was 16.4 µM [falling, partial curve].

In the case of `Cc1cc(-c2csc(N)n2)c(C)n1Cc1ccco1`, the cell number change was 68.5% and the AC50 [1] was 5.8 µM [falling, single point].

With `CCOC(=O)CNc1nnc(SCC(=O)OCC)[nH]c1=O` the cell number change was -23.4%.

`COc1ccc(C(=O)CSc2ncn[nH]2)cc1OC` showed a cell number change of -5.1%.

In the case of `O=C(C1CCOCC1)N1CCCC(N2CCN(c3ccc(F)cc3)CC2)C1` (stereo not given), the AC50 [1] was 29.1 µM [rising, single point].

In the case of `COc1cccc(CNC(=O)C2CCN(S(=O)(=O)c3ccc4c(c3)CC(C)N4C(=O)C3CC3)CC2)c1` (stereo not given), the cell number change was 2.09% and the AC50 [1] was 0.651 µM [rising, full curve].

With `Cc1ccc(S(=O)(=O)N2CCC(C(=O)OCC(=O)N3CCCCC3C)CC2)cc1C` (stereo not given) the cell number change was -28.4%, the AC50 [2] was 0.58 µM [falling, full curve, poor fit] and the AC50 [1] was 20.6 µM [falling, partial curve].

In the case of `O=C(CCC1CCCN(C(=O)c2ccc3c(c2)OCO3)C1)NCc1ccc(F)c(F)c1` (stereo not given), the cell number change was -50.6%, the AC50 [2] was 1.46 µM [falling, full curve] and the AC50 [1] was 23.1 µM [falling, partial curve].

For `Cc1ccc(C(=O)c2coc3ccc(O)c(CN4CCN(C)CC4)c23)cc1`, the cell number change was -22.5% and the AC50 [1] was 0.116 µM [rising, full curve].

In the case of `Cc1ccc(C)c(S(=O)(=O)N2CCCCC2CCNC(=O)C(=O)NC2CC2)c1` (stereo not given), the cell number change was -8.09% and the AC50 [1] was 20.6 µM [falling, single point].

In the case of `O=C(Nc1cccc(S(=O)(=O)N2CCCCC2)c1)c1ccccc1NS(=O)(=O)c1ccc(F)cc1`, the cell number change was -31%, the AC50 [2] was 16.4 µM [falling, single point] and the AC50 [1] was 14.6 µM [falling, partial curve].
